Data from US20210347914A1.
Results are given in words; binding and its absence hold for the method and conditions named. Some results given as binding are weak or reduced against the parent protein; the word gives no strength.

By UniProt entry, the sequences of proteins in these tests, tags left out. Where a name states a change or a piece, a line headed by the entry shows the natural chain unless it says otherwise.
UniProt P09936: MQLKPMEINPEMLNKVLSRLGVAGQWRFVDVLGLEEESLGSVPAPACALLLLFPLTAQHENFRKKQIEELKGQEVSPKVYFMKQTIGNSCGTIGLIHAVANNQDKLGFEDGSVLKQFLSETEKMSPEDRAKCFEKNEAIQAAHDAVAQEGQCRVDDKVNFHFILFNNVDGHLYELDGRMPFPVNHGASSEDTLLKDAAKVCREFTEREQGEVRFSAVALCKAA

B1: UCH-L1-1 (antibody, V domains shown)
VH: QVQLQQPGSELVRPGASVKLSCKASGYTFTSYWMHWVKQRPGQGLEWIGNIYPGSGSTNYDEKFKSKATLTVDTSSSTAYMQLSSLTSEDSAVYYCTREDYWGQGTTLTVSS
VL: DVLMTQTPLSLPVSLGDQASISCRSSQNIVHSNGNTYLEWYLQKPGQSPKLLIYKVSNRFSGVPDRFSGSGSGTDFTLKISRVEAEDLGVYYCFQGSHVPFTFGSGTKLEIK
B2: UCH-L1-10 (antibody, V domains shown)
VH: EVQLQQSGPDLVKPGTSVKISCKTSGYTFTEYTMHWVKQSHGRSLEWIGGFNPNNGRTSYNQKFKGKATLTVDKSSSTAYMELRSLTSEDSAVYYCSRRLYRGFYFDYWGQGTTLTVSS
VL: DIVLTQSPASLAVSLGQRATISCRASESVDSYGNNLMHWYQQKPGQSPKLLIYRASNLESGIPGRFSGRGSRTDFSLTINPVEADDVATYYCQQSNGDPYTFGGGTKLEIK
B3: UCH-L1-11 (antibody, V domains shown)
VH: EVQLVESGGGLVKPGGSLKLSCAASGFTFSRYAMSWVRQTPEKRLEWVATISTAGSYTYYPDSVKGRFTISRDNAKNTLYLQMSSLRSEDTALYYCARQGTGTYAMDYWGQGTSVTVSS
VL: DIQMTQSPASLSASVGETVTITCRASGNIHNYLAWYQQNQGKSPQLLVYNAKTLADGVPSRFSGSGSGTQYSLKINRLQPEDFGSYYCQHFWSTTWTFGGGTKLEIK
B4: UCH-L1-12 (antibody, V domains shown)
VH: EVQLVESGGGLVKPGGSLKLSCAASGFTFSKNAMSWVRQTPEKRLEWVATISTGGTYTYYPDSVKGQFTISRDNAKNTLYLQMSSLRSEDTAMYFCARQRTGTYAMDHWGQGTSVTVSS
VL: DIQMTQSPASLSASVGETVTITCRASGNIHNYLAWYQQKQGKSPQLLVYNANTLADGVPPRFSGSGSGTQYSLKVNSLQPEDFGNYYCQHFWSTTWTFGGGTRLEIK
B5: UCH-L1-13 (antibody, V domains shown)
VH: QVQLQQPGSELVRPGASVKLSCKASGYTFTSYWMHWVKQRPGQGLEWIGNIYPGSGTTNYDEKFKSKATLTVDTSSSTAYMQLNSLTSEDSAVYYCTREDYWGQGTTLTVSS
VL: DVLMTQSPLSLPVSLGDQASISCRSSQNIVHSNGNTYLEWYLQKPGQSPKLLIYKVSNRFSGVPDRFSGSGSGTDFTLKISRVEAEDLGVYYCFQGSHVPYTFGGGTKLEIK
B6: UCH-L1-2 (antibody, V domains shown)
VH: EVMLVESGGGLVKPGGSLKLSCAASGFIFSSHAMSWIRQIPEKRLEWVATISSGGSNTYYPDSVKGRFTISRDNAKNILYLQMSSLRSEDTAIYYCTRHGEVRRGYYFDYWGQGTTLTVSS
VL: DIQMTQTPSSLSASLGDRVTISCSASQGITNYLNWYQQKPDGTVKLLIYYTSSLHSGVPSRFSGSGSGTDYSLTISNLEPEDFATYYCQHYSNLPWTFGGGTKLEIK
B7: UCH-L1-3 (antibody, V domains shown)
VH: QVQLQQPGSELVRPGASVKLSCRASGYTFTSYWIHWVKQRHGQGLEWIGNIYPGSGITNYDEKFKTKGTLTVDTSSSTVYMHLISLTSEDSAVYYCTREDYWGQGTTLTVSS
VL: DVLMTQTPLSLPVSLGDQASISCRSSQSIVHSNGNTYLEWYLQKPGQSPKLLIYKVSNRFSGVPDRFSGSGSGTDFTLKISGVETEDLGVYYCFQGSHVPFTFGGGTKLEIK
B8: UCH-L1-4 (antibody, V domains shown)
VH: AVQLQQSGPELVKPGASVKISCKTSGDTFTEHFMNWVKQSHGESLEWIGIINPYTDGTNYDQKFKDKATLTVDKSSSTAYMELRSLTSEDSAVYYCARWGGDGEGYWGQGTTLTVSS
VL: DIVMTQAAPSVSVTPGESVSISCRSSKSLLHSNGNTYLYWFLKRPGQSPQLLIYRMSNLASGVPDRVSGSGSGTAFTLRISRVEAEDVGIYYCMQHLEYPLTFGAGTKLELK
B9: UCH-L1-5 (antibody, V domains shown)
VH: EVKLVESGGGSVQPGGSLSLSCAASGFTFTEYYMSWVRQFPGKALEWLAFIRNRAHGYTTEYSASVKGRFTISRDNSQSILYLQMNALRTEDSATYYCASSYGAPFAYWGQGTLVSVSA
VL: DIVMTQAAPSVPVTPGESVSISCRSSKSLLHSDGNTYLYWFLQRPGQSPQLLIYRMSNLASGVPDRFSGSGSGTAFTLRISRVEAEDVGVYYCMQHLEYPLTFGAGTKLELK
B10: UCH-L1-6 (antibody, V domains shown)
VH: EVQLQQSGPELVKPGASVKISCKTSGYTFTEYTMHWVKQSHGKSLDWIGGINPNNGRTSYNQKFKGKATLTVDKSSSTAYMDFRSLTSEDSAVYYCARRLGRGFYFDYWGQGTTLTVSS
VL: DIVLTQSPASLAVSLGQRATISCRASESVESYGNNLIHWYQQKLGQPPKLLIYLSSNLEPGIPARFSGRGSRTDFTLTINPVEADDVATYYCQQSNGDPYTFGGGTKLEIR
B11: UCH-L1-7 (antibody, V domains shown)
VH: EVQLQQSGPELVKPGASVKISCKTSGYTFTEYTMHWVKQSHGKSLDWIGGINPNNGRTSYNQKFKGKATLTVDKSSSTAYMELRSLTSEDSAVYYCARRLGRGFYFDYWGQGTTLTVSS
VL: DIVLTQSPASLAVSLGQRATISCRASESVDSYGNNLMHWYQQKPGQPPKLLIYLSSNLESGIPARFSGRGSRTDFTLTINPVEADDVATYYCQQSNGDPYTFGGGTKLEIK
B12: UCH-L1-8 (antibody, V domains shown)
VH: EVQLQQSGPDLVKPGTSVKISCKTSGYTFTEYTMHWVKQSHGRSLEWIGGLNPNNGRTSYNQKFKGKATLTVDKSSSIAYMELRSLTSEDSAVYYCARRLGRGFYFDYWGQGTTLTVSS
VL: DIVLTQSPASLAVSLGQRATISCRASESVDSYGNNLMHWYQQKPGQSPKLLIYRASNLESGIPGRFSGRGSRTDFTLTINPVEADDVATYYCQQSNGDPYTFGGGTKLEIK
B13: UCH-L1-9 (antibody, V domains shown)
VH: EVQLQQSGPELVKPGASVKISCKTSGYTFTEYTMHWVKQSHGKSLDWIGGINPNNGRTSYNQKFKGKATLTVDKSSSTAYMELRSLTSEDSTVYYCARRLGRGFYFDYWGQGTTLTVSS
VL: DIVLTQSPASLAVSLGQRATISCRASESVDSYGNNFMHWYQQKPGQPPKLLIYLSSNLESGIPARFSGRGSRTDFTLTINPVEADDVATYYCQQSNGDPYTFGGGTKLEMK

Assays:
[1] = molecular target: recombinant human UCH-L1 (human) (UniProt P09936); assay: hybridoma screen, indirect and sandwich ELISA (recombinant or CSF UCH-L1)
[2] = molecular target: recombinant human UCH-L1 (human) (UniProt P09936); assay: hybridoma screen, western blot and indirect ELISA with recombinant UCH-L1

Binder	binding [1]	binding [2]
B1	binds	–
B2	binds	–
B3	binds	–
B4	binds	–
B5	–	binds
B6	binds	–
B7	binds	–
B8	binds	–
B9	binds	–
B10	binds	–
B11	binds	–
B12	binds	–
B13	binds	–
